For this assay, the target named is rabbit VCAM-1 on transfected CHO cells (rabbit). Nature of the assay: flow cytometry on CHO cells transfected with rabbit VCAM-1. On the technique in general: Flow cytometry measures light scatter and fluorescence of single cells or particles in a stream.

No constants are given. Whether binding was seen depends on the method and setting. Some binding calls cover weakened binding; strength is not graded here.

B1: cAbVCAM1-5 (VHH)
VHH: QVQLQESGGGSVQTGGSLRLSCAASGYTNSIMYMAWFRQAPGKKREGVAAIRFPDDSAYYAGSVKGRFTISHDNAKNTVYLQMNNLNPEDTAMYYCAARSSPYSFAWNDPSNYNYWGQGTQVTVSS
notes: Dromedary nanobody produced with a hexahistidine tag in E. coli; also called anti-VCAM-1 nanobody; not shown: hexahistidine tag
For B1, the binding result is “binds”.

These data come from patent US20140255303A1 (UNIVERSITE JOSEPH FOURIER GRENOBLE 1, published 2014).
